Measured values from patent US20140171373A1.
These are yes or no findings as the source states them, for the method shown. A result given as binding can be weak or reduced; the word gives no strength.

Chains of the proteins cited; added tags and fusions are not shown. Lines headed by an entry give the natural chain unless they say otherwise; changes in a name come on top.
UniProt P42575: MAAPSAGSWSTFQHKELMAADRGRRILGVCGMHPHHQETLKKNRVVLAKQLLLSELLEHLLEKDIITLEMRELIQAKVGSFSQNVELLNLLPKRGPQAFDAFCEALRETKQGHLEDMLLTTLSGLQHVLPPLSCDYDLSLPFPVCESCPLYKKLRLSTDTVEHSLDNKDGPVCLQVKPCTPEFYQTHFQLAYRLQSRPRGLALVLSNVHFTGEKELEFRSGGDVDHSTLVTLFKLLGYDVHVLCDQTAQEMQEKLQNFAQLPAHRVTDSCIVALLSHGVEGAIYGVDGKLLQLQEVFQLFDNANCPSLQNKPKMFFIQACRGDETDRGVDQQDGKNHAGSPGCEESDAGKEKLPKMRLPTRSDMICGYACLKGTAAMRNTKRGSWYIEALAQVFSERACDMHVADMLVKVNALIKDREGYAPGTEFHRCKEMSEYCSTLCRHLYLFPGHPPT

Target: caspase-2 (UniProt P42575)
Assay: competitive binding assay (PROMEGA-GLO 2)

| Binder | binding |
| --- | --- |
| YKPVD (N-terminal R1 = benzyl; C-terminal Asp aldehyde (CHO)) [pentapeptide of Table 1, SEQ ID NO:25 (R1 benzyl; Y-K-P-V-D; R2 CHO)] | binds |
| YDPVD (N-terminal R1 = benzyl; C-terminal Asp aldehyde (CHO)) [pentapeptide of Table 1, SEQ ID NO:26 (R1 benzyl; Y-D-P-V-D; R2 CHO)] | binds |
| YKPFD (N-terminal R1 = CH3 (acetyl); C-terminal Asp aldehyde (CHO)) [pentapeptide of Table 1, SEQ ID NO:27 (R1 CH3; Y-K-P-F-D; R2 CHO)] | binds |
| YDPFD (N-terminal R1 = CH3 (acetyl); C-terminal Asp aldehyde (CHO)) [pentapeptide of Table 1, SEQ ID NO:28 (R1 CH3; Y-D-P-F-D; R2 CHO)] | binds |
| YKPAD (N-terminal R1 = CH3 (acetyl); C-terminal Asp aldehyde (CHO)) [pentapeptide of Table 1, SEQ ID NO:29 (R1 CH3; Y-K-P-A-D; R2 CHO)] | binds |
| YDPAD (N-terminal R1 = CH3 (acetyl); C-terminal Asp aldehyde (CHO)) [pentapeptide of Table 1, SEQ ID NO:30 (R1 CH3; Y-D-P-A-D; R2 CHO)] | binds |
| YKVVD (N-terminal R1 = CH3 (acetyl); C-terminal Asp aldehyde (CHO)) [pentapeptide of Table 1, SEQ ID NO:31 (R1 CH3; Y-K-V-V-D; R2 CHO)] | binds |
| YDVVD (N-terminal R1 = CH3 (acetyl); C-terminal Asp aldehyde (CHO)) [pentapeptide of Table 1, SEQ ID NO:32 (R1 CH3; Y-D-V-V-D; R2 CHO)] | binds |
| YKPYD (N-terminal R1 = CH3 (acetyl); C-terminal Asp aldehyde (CHO)) [pentapeptide of Table 1, SEQ ID NO:33 (R1 CH3; Y-K-P-Y-D; R2 CHO)] | binds |
| YKPVD (N-terminal R1 = CH3 (acetyl); K(Ac) at aa4; C-terminal Asp aldehyde (CHO)) [pentapeptide of Table 1, SEQ ID NO:19 (R1 CH3; Y-K(Ac)-P-V-D; R2 CHO)] | binds |
| YDPVD (N-terminal R1 = CH3 (acetyl); C-terminal Asp aldehyde (CHO)) [pentapeptide of Table 1, SEQ ID NO:20 (R1 CH3; Y-D-P-V-D; R2 CHO)] | binds |
| YSPVD (N-terminal R1 = CH3 (acetyl); C-terminal Asp aldehyde (CHO)) [pentapeptide of Table 1, SEQ ID NO:21 (R1 CH3; Y-S-P-V-D; R2 CHO)] | binds |
| YCPVD (N-terminal R1 = CH3 (acetyl); C-terminal Asp aldehyde (CHO)) [pentapeptide of Table 1, SEQ ID NO:22 (R1 CH3; Y-C-P-V-D; R2 CHO)] | binds |
| FKPVD (N-terminal R1 = CH3 (acetyl); C-terminal Asp aldehyde (CHO)) [pentapeptide of Table 1, SEQ ID NO:23 (R1 CH3; F-K-P-V-D; R2 CHO)] | binds |
